Results from patent US11746100B2 (GLOBAL BLOOD THERAPEUTICS, INC., priority 2020, dated 2023).
Structures were worked out from names or drawings and are uncertain.

By UniProt entry, the sequences of proteins in these tests, tags left out.
UniProt Q9NP59, whole entry: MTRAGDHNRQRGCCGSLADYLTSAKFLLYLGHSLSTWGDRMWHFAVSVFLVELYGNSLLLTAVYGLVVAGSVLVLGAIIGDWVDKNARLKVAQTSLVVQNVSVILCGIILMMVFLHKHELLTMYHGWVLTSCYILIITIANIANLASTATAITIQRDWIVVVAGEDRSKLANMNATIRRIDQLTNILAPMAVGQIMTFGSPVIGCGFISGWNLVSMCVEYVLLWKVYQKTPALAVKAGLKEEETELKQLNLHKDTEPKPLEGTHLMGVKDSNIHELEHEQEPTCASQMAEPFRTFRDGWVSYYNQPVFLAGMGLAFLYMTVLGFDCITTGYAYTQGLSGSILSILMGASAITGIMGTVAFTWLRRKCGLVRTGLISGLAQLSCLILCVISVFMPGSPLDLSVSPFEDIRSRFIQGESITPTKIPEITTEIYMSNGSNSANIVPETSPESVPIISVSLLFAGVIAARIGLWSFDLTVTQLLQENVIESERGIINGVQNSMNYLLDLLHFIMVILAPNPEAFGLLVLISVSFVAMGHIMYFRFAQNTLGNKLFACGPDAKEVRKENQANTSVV

Biological target: human ferroportin (Homo sapiens, UniProt Q9NP59)
Assay: Biological in-vitro ferroportin internalization assay (luciferase reporter)
Assay type: cell-based
Conditions: average pEC50, stably-transfected CHO cell line expressing human ferroportin tagged to a luciferase reporter, 6 h incubation with test compound
Procedure: The protocol for this assay is generally as described in WO2018/128828, incorporated herein by reference in its entirety. Functional internalization of ferroportin protein was measured using a stably-transfected CHO cell line expressing the human ferroportin tagged to a luciferase reporter. Cells were plated for 24 h in the presence of ferric ammonium citrate (FAC). Ferroportin protein expression was induced with doxycycline for 24 h. The next day, the compounds were added. Test compounds were dissolved in DMSO. Cells were incubated with the test compounds for 6 h, and subsequently luciferase activity was measured using the Nano-Glo Luciferase Assay System and Glomax (Promega, Madison, Wis.). The average pEC50 was determined for the test compounds.

Compound | pEC50 (tested form: formate) | pEC50
CN(CC(=O)NC(C)(C)C)c1nc(-c2ncccn2)nc2c1CCC2 | 5.4 | –
COc1ccc(NC(=O)CN(C)c2nc(-c3cc4cn[nH]c4cn3)nc3c2CCC3)nc1 | – | 7.5
